Results from one PubChem assay

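SK-N-MC pediatric tumor cells treated with compound for 48 h, with viable, metabolically active cells measured by a luminescence readout. Compounds were titrated in a dilution series reaching mostly about 45.9 µM at the top. The number is the fitted AC50 potency for the cell-killing curve; a lower value means a more potent compound. Calls come from the fitted curve: inconclusive marks weak, poorly fitted or top-dose-only effects, scored 1 to 39.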

Values are in µM. All entries here are filed as inconclusive. Only part of the assay is shown, chiefly results filed as inconclusive. A potency from a partial, single-point or poor curve is only a rough figure. The first word of each remark tells which way the curve ran; it can be opposite to the aim of the assay. Activity scores are not listed here.

{"compound": "Cc1nc(Nc2n[nH]c3c2CN(C(=O)N[C@H](CN(C)C)c2ccccc2)C3(C)C)c2sccc2n1", "fitted potency (µM)": "0.0928", "remark": "cytotoxic, full curve, poor fit"}
{"compound": "CN1C[C@H](C(=O)N[C@]2(C)O[C@@]3(O)[C@@H]4CCCN4C(=O)[C@H](Cc4ccccc4)N3C2=O)C[C@@H]2c3cccc4[nH]cc(c34)C[C@H]21", "fitted potency (µM)": "4.143", "remark": "cytotoxic, partial curve, poor fit"}
{"compound": "Cc1c(Cn2c(C)nc3c(C(=O)O)cc(N4CCOCC4)cc32)cccc1C(F)(F)F", "fitted potency (µM)": "29.33", "remark": "cytotoxic, single point"}
{"compound": "C[C@@]1(C(=O)Nc2ccc(F)nc2)CCCN1c1nc(Nc2cc(C3CC3)[nH]n2)c2cccn2n1", "fitted potency (µM)": "0.0928", "remark": "cytotoxic, full curve, poor fit"}
{"compound": "CS(=O)(=O)CCNCc1ccc(-c2ccc3ncnc(Nc4ccc(OCc5cccc(F)c5)c(Cl)c4)c3c2)o1", "fitted potency (µM)": "0.1041", "remark": "cytotoxic, full curve, poor fit"}
{"compound": "O=C1C(I)=CC(=C(c2cc(I)c(O)c(I)c2)c2ccccc2C(=O)O)C=C1I", "fitted potency (µM)": "36.92", "remark": "cytotoxic, single point"}
{"compound": "CCCCCCCCC(=O)NCc1ccc(O)c(OC)c1", "fitted potency (µM)": "11.68", "remark": "cytotoxic, single point"}
{"compound": "CC(=O)SCC(Cc1ccccc1)C(=O)NCC(=O)OCc1ccccc1", "stereo": "stereo not shown", "fitted potency (µM)": "36.92", "remark": "cytotoxic, partial curve, poor fit"}
{"compound": "COc1ccc(-n2nc(C(N)=O)c3c2C(=O)N(c2ccc(N4CCCCC4=O)cc2)CC3)cc1", "fitted potency (µM)": "36.92", "remark": "cytotoxic, single point"}
{"compound": "CC(=O)O[C@]1(C(C)=O)CC[C@@H]2[C@@H]3C[C@H](C)C4=CC(=O)CC[C@]4(C)[C@H]3CC[C@@]21C", "fitted potency (µM)": "36.92", "remark": "cytotoxic, single point"}
{"compound": "O=C1NC(=O)C(=Cc2ccc3nccc(-c4ccncc4)c3c2)S1", "fitted potency (µM)": "8.266", "remark": "cytotoxic, partial curve, poor fit"}
{"compound": "Cn1cc(C2=C(c3cn(C4CCN(Cc5ccccn5)CC4)c4ccccc34)C(=O)NC2=O)c2ccccc21", "fitted potency (µM)": "0.5216", "remark": "cytotoxic, full curve, poor fit"}
{"compound": "CC(S)C(=O)NCC(=O)O", "stereo": "stereo not shown", "fitted potency (µM)": "0.0012", "remark": "rising, full curve, poor fit"}
{"compound": "C[C@]12Cc3cn[nH]c3C[C@@H]1CC[C@@H]1[C@H]2CC[C@@]2(C)[C@H]1CC[C@]2(C)O", "fitted potency (µM)": "0.9275", "remark": "cytotoxic, full curve, poor fit"}
{"compound": "NC1=N[C@@]2(c3cc(NC(=O)c4ccc(F)cn4)ccc3F)COC[C@@H]2CS1", "fitted potency (µM)": "36.92", "remark": "cytotoxic, single point"}
{"compound": "Nc1ccn([C@@H]2O[C@H](CO)[C@H](O)C2(F)F)c(=O)n1", "fitted potency (µM)": "0.1851", "remark": "cytotoxic, full curve, poor fit"}
{"compound": "O=C1NC(=O)C(=Cc2ccc3c(c2)OC(F)(F)O3)S1", "fitted potency (µM)": "2.933", "remark": "cytotoxic, full curve, poor fit"}
{"compound": "CC[C@H](NC(=O)[C@H](C)NC)C(=O)N1C[C@@H](O)C[C@H]1Cc1c(-c2[nH]c3cc(F)ccc3c2C[C@H]2C[C@H](O)CN2C(=O)[C@H](CC)NC(=O)[C@H](C)NC)[nH]c2cc(F)ccc12", "fitted potency (µM)": "3.291", "remark": "cytotoxic, full curve, poor fit"}
{"compound": "CO[C@H]1C[C@@H]2CC[C@@H](C)[C@@](O)(O2)C(=O)C(=O)N2CCCC[C@@H]2C(=O)O[C@H]([C@H](C)C[C@@H]2CC[C@H](OCCO)[C@H](OC)C2)CC(=O)[C@H](C)C=C(C)[C@@H](O)[C@@H](OC)C(=O)[C@H](C)C[C@H](C)C=CC=CC=C1C", "fitted potency (µM)": "36.92", "remark": "cytotoxic, single point"}
{"compound": "Clc1ccc(C(c2ccccc2Cl)C(Cl)Cl)cc1", "stereo": "stereo not shown", "fitted potency (µM)": "36.92", "remark": "cytotoxic, single point"}
{"compound": "O=C(Nc1cccc(Br)c1)c1cccc(S(=O)(=O)N2CCCCCC2)c1", "fitted potency (µM)": "36.92", "remark": "cytotoxic, single point"}
{"compound": "C[C@]1(c2nc3c(C(N)=O)cccc3[nH]2)CCCN1", "fitted potency (µM)": "11.68", "remark": "cytotoxic, partial curve, poor fit"}

Once more, the final 2:

- O=C(Nc1cccc(Br)c1)c1cccc(S(=O)(=O)N2CCCCCC2)c1 : fitted potency 36.92 µM (cytotoxic, single point)
- C[C@]1(c2nc3c(C(N)=O)cccc3[nH]2)CCCN1 : fitted potency 11.68 µM (cytotoxic, partial curve, poor fit)

Source: PubChem BioAssay AID1347111 (NCATS, 2019).